Measurements: patent US20060058223A1
These are yes or no findings as the source states them, for the method shown. Binding seen in cells or lysates may run through a third protein. Some binding calls cover weakened binding; strength is not graded here. Sequences can lack the tags named with a protein.

Sequences of proteins named here, by UniProt entry; tags and fusion partners are left off. Residues count along the entry.
UniProt Q96FE5, residues 42-620: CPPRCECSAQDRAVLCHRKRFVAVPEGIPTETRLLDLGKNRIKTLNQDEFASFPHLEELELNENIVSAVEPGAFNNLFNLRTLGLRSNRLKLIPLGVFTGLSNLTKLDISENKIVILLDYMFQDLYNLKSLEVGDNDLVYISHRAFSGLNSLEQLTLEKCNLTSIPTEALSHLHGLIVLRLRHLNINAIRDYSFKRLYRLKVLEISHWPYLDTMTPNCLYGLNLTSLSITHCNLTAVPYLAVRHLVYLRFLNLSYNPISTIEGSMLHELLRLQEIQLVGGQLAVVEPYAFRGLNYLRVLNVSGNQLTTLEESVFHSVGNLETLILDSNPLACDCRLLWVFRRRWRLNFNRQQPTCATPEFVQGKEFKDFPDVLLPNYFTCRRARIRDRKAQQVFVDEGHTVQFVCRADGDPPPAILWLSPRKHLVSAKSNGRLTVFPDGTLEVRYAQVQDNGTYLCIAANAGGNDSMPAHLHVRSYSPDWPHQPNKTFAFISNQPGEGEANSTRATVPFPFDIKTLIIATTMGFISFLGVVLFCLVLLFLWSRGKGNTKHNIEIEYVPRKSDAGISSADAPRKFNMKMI

What was measured:
[1] = molecular target: human LINGO-1 expressed in COS-7 cells (human) (UniProt Q96FE5); assay: co-immunoprecipitation from co-transfected COS-7 cells, Western blot
[2] = molecular target: T1, human NgR1 expressed in COS-7 cells (human) (UniProt Q9BZR6); assay: as above
T1 sequence (looked up): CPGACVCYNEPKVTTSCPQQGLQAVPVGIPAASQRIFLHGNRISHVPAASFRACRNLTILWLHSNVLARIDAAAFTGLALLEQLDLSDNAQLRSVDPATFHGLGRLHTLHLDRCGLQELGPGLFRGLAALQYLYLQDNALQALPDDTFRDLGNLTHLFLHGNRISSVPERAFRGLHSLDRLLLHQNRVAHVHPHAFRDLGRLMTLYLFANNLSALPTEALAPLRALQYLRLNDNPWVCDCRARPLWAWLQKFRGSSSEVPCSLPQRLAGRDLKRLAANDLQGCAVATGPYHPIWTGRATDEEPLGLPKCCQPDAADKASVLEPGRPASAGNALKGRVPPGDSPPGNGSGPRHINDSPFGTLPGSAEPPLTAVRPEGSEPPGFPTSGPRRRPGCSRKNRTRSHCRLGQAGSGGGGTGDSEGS

B1: Human TAJ (residue 26 to 416, in PV90 HA tag expression vector) expressed in COS-7 cells (receptor, not shown: small tags and cut ends)
chain: KVTCESGDCRQQEFRDRSGNCVPCNQCGPGMELSKECGFGYGEDAQCVACRLHRFKEDWGFQKCKPCLDCAVVNRFQKANCSATSDAICGDCLPGFYRKTKLVGFQDMECVPCGDPPPPYEPHCASKVNLVKIASTASSPRDTALAAVICSALATVLLALLILCVIYCKRQFMEKKPSWSLRSQDIQYNETELSCFDRPQLHEYAHRACCQCRRDSVQTCGPVRLLPSMCCEEACSPNPATLGCGVHSAASLQARNAGPAGEMVPTFFGSLTQSICGEFSDAWPLMQNPMGGDNISFCDSYPELTGEDIHSLNPELESSTSLDSNSSQDLVGGAVPVQSHSENFTAATDLSRYNNTLVESASTQDALTMRSQLDQESGAVIHPATQTSLQV
- binding [1]: binds
- binding [2]: binds
